Results of single-concentration screens

Chains of the proteins cited; added tags and fusions are not shown. Residues count along the entry.
UniProt P9WPC5, whole entry: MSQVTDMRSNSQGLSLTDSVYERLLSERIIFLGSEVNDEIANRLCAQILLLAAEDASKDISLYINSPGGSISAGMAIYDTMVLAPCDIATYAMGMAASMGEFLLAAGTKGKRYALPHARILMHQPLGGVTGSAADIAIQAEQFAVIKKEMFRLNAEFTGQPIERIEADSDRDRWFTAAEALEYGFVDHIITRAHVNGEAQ
UniProt P9WPC3, whole entry partner: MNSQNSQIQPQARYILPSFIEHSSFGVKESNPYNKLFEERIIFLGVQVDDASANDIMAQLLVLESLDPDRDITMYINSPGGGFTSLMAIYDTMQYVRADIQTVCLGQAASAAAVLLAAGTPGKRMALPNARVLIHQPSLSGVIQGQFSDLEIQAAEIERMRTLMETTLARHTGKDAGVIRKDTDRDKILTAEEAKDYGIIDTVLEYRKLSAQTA
UniProt P9WFT3, whole entry: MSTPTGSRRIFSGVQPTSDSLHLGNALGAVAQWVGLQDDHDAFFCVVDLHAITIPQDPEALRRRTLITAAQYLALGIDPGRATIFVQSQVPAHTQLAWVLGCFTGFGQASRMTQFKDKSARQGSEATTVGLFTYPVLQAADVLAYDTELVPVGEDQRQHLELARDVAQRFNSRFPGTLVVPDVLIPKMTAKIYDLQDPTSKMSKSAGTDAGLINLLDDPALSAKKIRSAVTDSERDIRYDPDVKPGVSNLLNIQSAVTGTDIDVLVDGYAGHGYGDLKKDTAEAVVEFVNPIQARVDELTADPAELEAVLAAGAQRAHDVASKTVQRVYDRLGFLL
UniProt Q8IDJ8, 1-583: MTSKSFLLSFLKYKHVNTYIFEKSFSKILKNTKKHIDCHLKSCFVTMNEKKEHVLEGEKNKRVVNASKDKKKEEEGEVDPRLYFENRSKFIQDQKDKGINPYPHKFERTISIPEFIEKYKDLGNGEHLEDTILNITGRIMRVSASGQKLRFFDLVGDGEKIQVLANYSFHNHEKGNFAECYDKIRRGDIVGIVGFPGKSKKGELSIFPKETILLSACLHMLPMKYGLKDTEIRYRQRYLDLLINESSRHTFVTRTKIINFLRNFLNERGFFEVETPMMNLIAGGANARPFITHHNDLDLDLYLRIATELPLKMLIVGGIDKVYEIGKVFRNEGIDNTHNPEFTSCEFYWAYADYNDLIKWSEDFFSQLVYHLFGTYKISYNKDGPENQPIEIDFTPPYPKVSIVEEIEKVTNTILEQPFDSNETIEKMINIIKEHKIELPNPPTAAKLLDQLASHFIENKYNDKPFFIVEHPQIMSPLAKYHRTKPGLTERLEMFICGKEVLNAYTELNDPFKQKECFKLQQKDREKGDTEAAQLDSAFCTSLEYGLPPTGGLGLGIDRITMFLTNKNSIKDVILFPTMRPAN

ClpP1P2: 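ClpP1P2, Mycobacterium tuberculosis (UniProt P9WPC5 and UniProt P9WPC3). Protease assay of ClpP1P2, read by the AMC dye that it sets free. Tested at 50 µM. Direction is inferred from only a few compounds that gave an IC50; most scored high, so higher reads as stronger inhibition. Most other retested compounds had strongly negative values. Size under these conditions: about 69,000 compounds, about 10 of them at 50% or above in at least one test.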
MtTrpRS: 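Enzyme assay of tryptophanyl-tRNA synthetase; the read-out is not stated. Target: Tryptophan-tRNA ligase, Mycobacterium tuberculosis (UniProt P9WFT3). Concentration: 10 µM. Direction is not recorded; retested compounds ran higher, which suggests that high means inhibition. About 65,000 compounds were tested under these conditions; 0.098% (about 64) showed 50% or more at least once.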
PfKRS1: 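Lysine-tRNA ligase, Plasmodium falciparum 3D7 (UniProt Q8IDJ8). Enzyme assay of the cytosolic lysyl-tRNA synthetase in 384-well plates, read by luminescence. Concentration: 30 µM. Higher reads as stronger inhibition, judged from the few compounds that gave an IC50. About 69,000 compounds were tested under these conditions; 0.071% (about 49) showed 50% or more at least once.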

Results are given as percent effect.
The record does not define 0% and 100%; most values in the screen are far below 50% and negative numbers occur (in some assays of this library far below -100).
This is an unselected part of the compounds tested.

Result for CC(C)c1cc(O)nc(C2CCCN2C(=O)C2CC2)n1 (stereo not shown) was ClpP1P2: 14.88%; MtTrpRS: -4.58%; PfKRS1: 0.2842%. O=C(c1ccc(-n2cccn2)cc1Cl)N1CCCC(O)(CO)C1 (stereo not shown) gave ClpP1P2: 3.196%; MtTrpRS: -0.1009%; PfKRS1: -0.6155%. Result for Cc1nn(C)cc1CN(C)C(=O)c1ccncc1 was ClpP1P2: -1.467%; MtTrpRS: 0.2867%; PfKRS1: 0.4772%. O=C1OCCN1CCN1CCCN(Cc2ccccc2F)CC1 read ClpP1P2: -3.757%; MtTrpRS: 1.125%; PfKRS1: 4.823%. CSc1ccccc1C(=O)C1CCCN(Cc2ccccn2)C1 (stereo not shown) gave ClpP1P2: -5.771%; MtTrpRS: 0.6415%; PfKRS1: 3.304%.

CCCc1noc(CN2CCCC2c2c(C)nn(C)c2OC)n1 (stereo not shown) read ClpP1P2: -3.307%; MtTrpRS: -3.97%; PfKRS1: -0.7776%. Result for O=C1[C@H]2CN(S(=O)(=O)C3CC3)C[C@H]2CN1CC1CC1 was ClpP1P2: -4.892%; PfKRS1: 3.526%. Cn1cc(CC2CC(=O)N(Cc3ccc(Cl)cc3)C2=O)cn1 (stereo not shown) read ClpP1P2: -5.275%; MtTrpRS: -0.4599%; PfKRS1: -5.89%. For Cc1nn(CCO)cc1CN1CCC(N2CCC(O)CC2)CC1 the result was ClpP1P2: -18.36%; MtTrpRS: 0.09139%; PfKRS1: 3.067%. With CN(CC(=O)NCc1ccccn1)C1CCCN(c2cccnn2)C1 (stereo not shown) the screen gave ClpP1P2: -26.35%; MtTrpRS: -4.182%; PfKRS1: 0.4525%.

Result for COc1ncnc2c1CCN(Cc1nccs1)CC2 was ClpP1P2: 4.033%; MtTrpRS: -4.148%; PfKRS1: 3.057%. With O=S(=O)(NCCNc1ccc(-n2cccc2)nn1)c1ccccc1 the screen gave ClpP1P2: 0.1187%; MtTrpRS: -7.675%; PfKRS1: -0.3508%. Result for Cc1ccc(CN2CCC3(CC2)C(c2ccccc2)CC(=O)N3C)o1 (stereo not shown) was ClpP1P2: 1.935%; PfKRS1: 3.101%. Result for CC(C(=O)NCc1ccnc(N2CCOCC2)c1)n1cccn1 (stereo not shown) was ClpP1P2: -33.41%; MtTrpRS: -4.331%; PfKRS1: -1.232%. COc1c(C2CCCN2Cc2nccn2C)c(C)nn1C (stereo not shown) gave ClpP1P2: -9.094%; MtTrpRS: -1.183%; PfKRS1: 2.611%.

With Cc1ccc(CNC(=O)C2CCN(C(=O)c3ccco3)CC2)n1C the screen gave ClpP1P2: 14.94%; MtTrpRS: 6.535%; PfKRS1: 6.131%. With CCOCc1cncc2c1CCN(C(=O)c1cscn1)C2 the screen gave ClpP1P2: -5.078%; PfKRS1: 3.175%. Cc1cn2c(n1)CCC(NS(=O)(=O)c1sc(C)nc1C)C2 (stereo not shown) read ClpP1P2: -3.885%; MtTrpRS: -0.1432%; PfKRS1: 2.665%. With Cc1cc(N2C[C@H](NC(=O)C3(C#N)CCOCC3)[C@@H](C(C)C)C2)ccn1 the screen gave ClpP1P2: -6.367%; MtTrpRS: 2.88%; PfKRS1: -4.437%. With COc1ccc(F)cc1CSCC(=O)N(CCC#N)CCC#N the screen gave ClpP1P2: 3.907%; MtTrpRS: -0.1638%; PfKRS1: 0.8433%.

O=C(NCCN1CCOCC1)c1ccc(-c2ccccc2)[nH]c1=O gave ClpP1P2: -7.449%; MtTrpRS: -4.159%; PfKRS1: 0.1471%. Result for CSCc1nc(CCNC(=O)c2cnn(C(C)C)c2)cs1 was ClpP1P2: 3.899%; MtTrpRS: -7.818%; PfKRS1: 6.107%. For CC(C)c1cc(C(=O)NCCc2nc(-c3ccncc3)n[nH]2)[nH]n1 the result was ClpP1P2: -5.469%; MtTrpRS: 0.718%; PfKRS1: 0.9428%. COCc1nc(N(C)C/C=C/c2ccccc2)c2cnn(C)c2n1 read ClpP1P2: 0.3022%; MtTrpRS: -0.9338%; PfKRS1: 1.019%. For c1nc(NCC2(N3CCOCC3)CCSC2)c2sccc2n1 (stereo not shown) the result was ClpP1P2: 8.875%; MtTrpRS: -1.636%; PfKRS1: 8.248%.

O=C(O)[C@@H]1CN(C2CCCCC2)C[C@H]1C1CC1 gave ClpP1P2: -14.44%; MtTrpRS: -3.171%; PfKRS1: -0.2508%. Cc1noc(CN(C)c2nc(-c3ccco3)nc3c2CCN(C)CC3)n1 read ClpP1P2: -12.12%; MtTrpRS: -0.6121%; PfKRS1: 1.431%. Result for O=C(c1cccnc1)N1Cc2[nH]nc(COCCO)c2C1 was ClpP1P2: 2.403%; MtTrpRS: -4.423%; PfKRS1: 8.615%. O=S(=O)(Cc1ccccc1F)NC(CO)c1ccco1 (stereo not shown) read ClpP1P2: -1.669%; MtTrpRS: 2.593%; PfKRS1: -2.241%. Cc1nc(COC[C@@H]2CC[C@H]3[C@H](CCN3C(=O)C3CC3)O2)cs1 read ClpP1P2: 6.298%; MtTrpRS: -4.527%; PfKRS1: -4.319%.

With Clc1cccc(N[C@H]2CCCN[C@H]2Cc2ccccc2)c1 the screen gave ClpP1P2: 11.25%; MtTrpRS: -6.861%; PfKRS1: 1.976%. O=C(C1CCCO1)N1CCc2onc(-c3ccc(Cl)cc3)c2C1 (stereo not shown) gave ClpP1P2: -7.279%; MtTrpRS: 6.155%; PfKRS1: 3.985%. CC(C)c1nc(C2CCCN(C(=O)c3ccc4nncn4c3)C2)no1 (stereo not shown) read ClpP1P2: -27.74%; MtTrpRS: -1.193%; PfKRS1: 0.9915%.

3 of the entries, repeated:

{"smiles": "O=C(C1CCCO1)N1CCc2onc(-c3ccc(Cl)cc3)c2C1", "stereo": "stereo not shown", "ClpP1P2": -7.279, "MtTrpRS": 6.155, "PfKRS1": 3.985}
{"smiles": "O=C(c1cccnc1)N1Cc2[nH]nc(COCCO)c2C1", "ClpP1P2": 2.403, "MtTrpRS": -4.423, "PfKRS1": 8.615}
{"smiles": "CC(C)c1cc(C(=O)NCCc2nc(-c3ccncc3)n[nH]2)[nH]n1", "ClpP1P2": -5.469, "MtTrpRS": 0.718, "PfKRS1": 0.9428}

From ChEMBL document CHEMBL3988442, “University of Dundee, Small-Polar-MMV Screening Library” (2021).